Reference: the supplement of paper PMC10849652
This is one part of the list.

Chains of the proteins cited; added tags and fusions are not shown. Lines headed by an entry give the natural chain unless they say otherwise; changes in a name come on top.
UniProt Q9NUQ2: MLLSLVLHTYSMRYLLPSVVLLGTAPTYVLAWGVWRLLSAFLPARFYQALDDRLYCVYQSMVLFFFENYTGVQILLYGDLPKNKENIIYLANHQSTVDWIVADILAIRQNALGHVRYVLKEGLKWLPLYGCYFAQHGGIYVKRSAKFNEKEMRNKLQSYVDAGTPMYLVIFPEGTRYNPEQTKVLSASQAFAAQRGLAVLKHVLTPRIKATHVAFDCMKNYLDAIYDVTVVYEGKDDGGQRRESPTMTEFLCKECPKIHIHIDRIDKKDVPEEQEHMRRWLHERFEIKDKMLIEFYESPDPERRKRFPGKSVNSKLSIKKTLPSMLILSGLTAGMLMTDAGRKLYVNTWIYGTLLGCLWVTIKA
UniProt P52895: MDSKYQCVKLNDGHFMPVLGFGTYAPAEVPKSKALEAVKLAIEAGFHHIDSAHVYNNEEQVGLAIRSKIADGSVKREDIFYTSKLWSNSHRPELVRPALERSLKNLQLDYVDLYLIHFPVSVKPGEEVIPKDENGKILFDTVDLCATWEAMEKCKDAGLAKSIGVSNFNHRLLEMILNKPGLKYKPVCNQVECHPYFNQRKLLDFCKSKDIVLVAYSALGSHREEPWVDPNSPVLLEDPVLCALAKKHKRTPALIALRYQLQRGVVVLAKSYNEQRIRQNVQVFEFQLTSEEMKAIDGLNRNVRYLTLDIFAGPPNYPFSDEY
UniProt Q96P47: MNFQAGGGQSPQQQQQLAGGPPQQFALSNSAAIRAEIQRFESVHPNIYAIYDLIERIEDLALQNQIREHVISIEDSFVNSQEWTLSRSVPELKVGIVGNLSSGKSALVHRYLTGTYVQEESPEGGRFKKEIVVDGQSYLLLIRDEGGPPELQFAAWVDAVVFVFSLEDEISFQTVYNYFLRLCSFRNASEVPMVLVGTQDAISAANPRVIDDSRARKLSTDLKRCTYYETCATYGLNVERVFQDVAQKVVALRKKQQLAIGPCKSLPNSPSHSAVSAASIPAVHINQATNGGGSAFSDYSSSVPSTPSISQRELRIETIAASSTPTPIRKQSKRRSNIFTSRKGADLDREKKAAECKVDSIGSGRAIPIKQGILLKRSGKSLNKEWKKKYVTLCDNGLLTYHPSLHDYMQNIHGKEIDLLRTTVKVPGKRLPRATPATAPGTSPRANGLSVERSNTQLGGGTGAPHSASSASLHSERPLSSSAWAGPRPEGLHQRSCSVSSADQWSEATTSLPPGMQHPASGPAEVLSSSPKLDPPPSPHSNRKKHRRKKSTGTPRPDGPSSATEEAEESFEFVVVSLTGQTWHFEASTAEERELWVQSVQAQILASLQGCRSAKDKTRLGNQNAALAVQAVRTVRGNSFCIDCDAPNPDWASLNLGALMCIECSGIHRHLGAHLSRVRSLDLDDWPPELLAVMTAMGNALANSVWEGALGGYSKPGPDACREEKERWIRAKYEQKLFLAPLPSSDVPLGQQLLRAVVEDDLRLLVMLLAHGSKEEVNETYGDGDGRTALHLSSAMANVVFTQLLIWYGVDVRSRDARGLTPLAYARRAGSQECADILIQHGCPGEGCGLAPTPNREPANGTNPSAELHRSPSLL
UniProt Q13705: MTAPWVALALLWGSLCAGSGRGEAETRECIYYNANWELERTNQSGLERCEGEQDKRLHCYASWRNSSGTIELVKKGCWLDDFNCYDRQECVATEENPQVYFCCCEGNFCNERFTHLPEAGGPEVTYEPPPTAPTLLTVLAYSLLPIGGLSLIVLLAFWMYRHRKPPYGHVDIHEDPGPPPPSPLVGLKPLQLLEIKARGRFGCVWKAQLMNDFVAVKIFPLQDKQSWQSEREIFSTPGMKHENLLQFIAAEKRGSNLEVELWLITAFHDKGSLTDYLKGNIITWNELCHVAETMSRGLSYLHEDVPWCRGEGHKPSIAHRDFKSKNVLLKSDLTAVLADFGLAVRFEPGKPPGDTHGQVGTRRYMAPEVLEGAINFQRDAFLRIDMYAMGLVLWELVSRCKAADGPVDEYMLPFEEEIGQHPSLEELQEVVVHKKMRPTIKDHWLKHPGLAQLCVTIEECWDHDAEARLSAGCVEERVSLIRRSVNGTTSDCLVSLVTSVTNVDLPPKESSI
UniProt Q15067: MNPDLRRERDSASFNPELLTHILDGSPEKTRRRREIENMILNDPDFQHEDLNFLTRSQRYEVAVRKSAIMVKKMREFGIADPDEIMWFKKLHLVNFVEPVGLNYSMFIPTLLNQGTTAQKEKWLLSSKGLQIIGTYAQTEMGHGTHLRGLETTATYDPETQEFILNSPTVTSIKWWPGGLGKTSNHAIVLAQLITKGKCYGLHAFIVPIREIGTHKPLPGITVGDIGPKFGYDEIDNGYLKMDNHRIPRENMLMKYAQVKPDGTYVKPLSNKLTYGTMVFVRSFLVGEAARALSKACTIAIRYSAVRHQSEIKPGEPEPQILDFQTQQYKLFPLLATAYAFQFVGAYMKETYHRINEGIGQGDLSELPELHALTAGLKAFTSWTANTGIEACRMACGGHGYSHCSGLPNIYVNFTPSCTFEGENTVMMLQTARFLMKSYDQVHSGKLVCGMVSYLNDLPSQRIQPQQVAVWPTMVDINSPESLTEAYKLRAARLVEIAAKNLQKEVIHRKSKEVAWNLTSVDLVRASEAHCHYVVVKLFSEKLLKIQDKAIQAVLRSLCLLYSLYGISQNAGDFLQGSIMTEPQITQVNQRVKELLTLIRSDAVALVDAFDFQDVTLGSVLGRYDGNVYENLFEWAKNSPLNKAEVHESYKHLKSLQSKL
UniProt P35612: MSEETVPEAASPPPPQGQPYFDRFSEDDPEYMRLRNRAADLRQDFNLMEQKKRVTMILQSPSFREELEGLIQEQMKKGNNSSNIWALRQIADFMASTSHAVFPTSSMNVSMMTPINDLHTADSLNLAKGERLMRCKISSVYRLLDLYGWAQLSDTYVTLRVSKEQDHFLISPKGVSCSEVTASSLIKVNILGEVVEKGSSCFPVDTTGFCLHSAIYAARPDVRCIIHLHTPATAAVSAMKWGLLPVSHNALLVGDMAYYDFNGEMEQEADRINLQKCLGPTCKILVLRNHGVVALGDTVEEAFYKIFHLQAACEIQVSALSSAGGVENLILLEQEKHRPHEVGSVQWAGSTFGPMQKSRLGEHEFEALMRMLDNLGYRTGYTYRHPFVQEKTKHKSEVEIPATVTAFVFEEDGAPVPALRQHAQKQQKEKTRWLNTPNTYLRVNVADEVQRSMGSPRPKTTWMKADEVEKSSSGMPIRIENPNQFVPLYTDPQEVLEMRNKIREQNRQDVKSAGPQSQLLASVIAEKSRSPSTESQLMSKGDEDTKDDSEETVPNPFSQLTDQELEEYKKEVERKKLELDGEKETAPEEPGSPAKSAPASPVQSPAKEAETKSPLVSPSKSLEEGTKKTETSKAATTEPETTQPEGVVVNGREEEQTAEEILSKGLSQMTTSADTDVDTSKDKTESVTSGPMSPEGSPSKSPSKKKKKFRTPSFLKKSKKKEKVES
UniProt O43823: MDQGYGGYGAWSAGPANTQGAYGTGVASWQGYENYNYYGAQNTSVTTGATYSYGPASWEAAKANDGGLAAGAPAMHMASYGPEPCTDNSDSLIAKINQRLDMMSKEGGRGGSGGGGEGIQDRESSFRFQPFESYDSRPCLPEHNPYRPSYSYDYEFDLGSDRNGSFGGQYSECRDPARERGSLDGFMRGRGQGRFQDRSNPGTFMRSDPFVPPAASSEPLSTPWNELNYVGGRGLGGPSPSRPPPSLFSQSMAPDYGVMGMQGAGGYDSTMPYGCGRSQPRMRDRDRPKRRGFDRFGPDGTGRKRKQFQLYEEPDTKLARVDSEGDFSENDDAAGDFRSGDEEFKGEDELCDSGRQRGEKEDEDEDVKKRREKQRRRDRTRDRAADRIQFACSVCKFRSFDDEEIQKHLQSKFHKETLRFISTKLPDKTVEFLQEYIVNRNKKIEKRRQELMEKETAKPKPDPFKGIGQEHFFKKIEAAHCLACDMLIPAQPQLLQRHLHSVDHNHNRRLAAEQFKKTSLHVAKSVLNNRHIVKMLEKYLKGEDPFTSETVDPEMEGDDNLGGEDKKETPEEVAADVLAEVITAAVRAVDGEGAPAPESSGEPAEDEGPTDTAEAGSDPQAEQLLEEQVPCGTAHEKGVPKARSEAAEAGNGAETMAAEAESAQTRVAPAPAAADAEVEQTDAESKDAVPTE
UniProt P00568: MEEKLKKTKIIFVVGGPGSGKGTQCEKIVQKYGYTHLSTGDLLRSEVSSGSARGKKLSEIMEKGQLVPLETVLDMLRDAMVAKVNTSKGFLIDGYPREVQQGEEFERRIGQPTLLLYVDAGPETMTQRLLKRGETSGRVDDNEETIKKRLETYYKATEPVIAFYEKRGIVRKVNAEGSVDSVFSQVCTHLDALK
UniProt Q96BJ3: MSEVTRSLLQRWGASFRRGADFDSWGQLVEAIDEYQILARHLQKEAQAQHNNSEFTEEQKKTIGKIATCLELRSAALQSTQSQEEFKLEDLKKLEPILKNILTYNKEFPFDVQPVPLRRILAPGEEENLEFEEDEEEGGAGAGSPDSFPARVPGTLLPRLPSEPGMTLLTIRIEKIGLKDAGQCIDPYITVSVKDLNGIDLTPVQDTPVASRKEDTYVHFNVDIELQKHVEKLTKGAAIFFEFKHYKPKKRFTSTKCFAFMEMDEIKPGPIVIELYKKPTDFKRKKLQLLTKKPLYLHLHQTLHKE
UniProt P14550: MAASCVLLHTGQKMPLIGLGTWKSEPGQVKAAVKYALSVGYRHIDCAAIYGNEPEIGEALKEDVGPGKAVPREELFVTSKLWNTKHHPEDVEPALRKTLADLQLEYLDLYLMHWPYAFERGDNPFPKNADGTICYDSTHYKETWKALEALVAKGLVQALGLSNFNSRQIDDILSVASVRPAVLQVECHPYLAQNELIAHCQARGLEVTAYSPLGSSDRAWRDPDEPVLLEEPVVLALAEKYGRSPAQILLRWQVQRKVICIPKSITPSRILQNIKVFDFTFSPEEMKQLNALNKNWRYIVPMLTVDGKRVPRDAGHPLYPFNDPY
UniProt Q13155: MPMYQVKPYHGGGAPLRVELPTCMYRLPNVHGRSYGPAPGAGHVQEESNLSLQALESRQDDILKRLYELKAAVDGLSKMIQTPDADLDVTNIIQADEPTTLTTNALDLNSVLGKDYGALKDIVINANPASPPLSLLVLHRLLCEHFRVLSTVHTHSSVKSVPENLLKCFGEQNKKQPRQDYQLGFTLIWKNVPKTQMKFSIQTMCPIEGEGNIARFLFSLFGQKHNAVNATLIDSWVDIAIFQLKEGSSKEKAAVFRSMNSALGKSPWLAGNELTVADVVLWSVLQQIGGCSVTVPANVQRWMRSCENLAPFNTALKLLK
UniProt P24666: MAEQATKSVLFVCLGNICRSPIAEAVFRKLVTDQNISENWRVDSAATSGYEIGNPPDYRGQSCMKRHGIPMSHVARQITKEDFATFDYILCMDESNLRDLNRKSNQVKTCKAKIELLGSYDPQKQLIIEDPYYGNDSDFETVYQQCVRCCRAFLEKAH
UniProt O60488: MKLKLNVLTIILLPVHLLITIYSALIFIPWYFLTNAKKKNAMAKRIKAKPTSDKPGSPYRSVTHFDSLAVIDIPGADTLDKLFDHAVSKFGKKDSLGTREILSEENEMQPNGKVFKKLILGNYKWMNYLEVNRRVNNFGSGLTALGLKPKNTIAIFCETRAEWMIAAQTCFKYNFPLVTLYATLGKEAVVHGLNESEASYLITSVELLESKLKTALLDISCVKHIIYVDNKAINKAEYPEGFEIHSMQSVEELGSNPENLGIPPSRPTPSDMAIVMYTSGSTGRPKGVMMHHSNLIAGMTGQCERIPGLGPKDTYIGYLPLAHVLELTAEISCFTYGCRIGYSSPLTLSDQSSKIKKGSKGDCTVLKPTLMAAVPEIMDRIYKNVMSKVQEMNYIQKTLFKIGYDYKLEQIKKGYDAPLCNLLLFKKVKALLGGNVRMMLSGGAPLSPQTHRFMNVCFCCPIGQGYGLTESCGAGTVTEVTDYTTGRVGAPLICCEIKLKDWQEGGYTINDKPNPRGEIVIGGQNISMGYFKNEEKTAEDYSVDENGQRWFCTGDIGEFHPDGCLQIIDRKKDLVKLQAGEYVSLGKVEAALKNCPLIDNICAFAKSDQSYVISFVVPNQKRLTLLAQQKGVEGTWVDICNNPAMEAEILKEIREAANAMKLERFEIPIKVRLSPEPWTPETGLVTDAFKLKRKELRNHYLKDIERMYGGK
UniProt Q96SZ5, whole entry, looked up: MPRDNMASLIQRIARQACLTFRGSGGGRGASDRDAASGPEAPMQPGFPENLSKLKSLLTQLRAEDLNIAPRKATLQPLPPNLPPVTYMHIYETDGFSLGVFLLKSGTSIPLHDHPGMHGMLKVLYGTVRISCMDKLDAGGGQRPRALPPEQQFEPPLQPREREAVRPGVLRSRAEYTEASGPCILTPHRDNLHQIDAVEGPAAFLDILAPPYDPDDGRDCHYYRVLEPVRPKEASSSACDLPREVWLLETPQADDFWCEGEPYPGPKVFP

Columns and labels:
Test in all cases: log2 fold change, soluble protein after heating vs DMSO (PISA); higher = thermal stabilisation; K562 lysate, 10 uM; active = over 0.2 and 3.5 SD of the protein, either way, in both replicates (recomputed)
[1] = compound: CCCS(=O)(=O)Nc1ccc(F)c(C(=O)c2c[nH]c3ncc(-c4ccc(Cl)cc4)cc23)c1F [vemurafenib]
Outline: (§1)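 The values are log-two fold changes in thermal stability compared with solvent controls and come from duplicates. They were obtained by TMTpro 16plex LC-MS/MS, with channel sums equalised, on the supernatant after 21,000xg for 90 min. That supernatant came from crude K562 extract at 1 mg/mL protein treated with 10 μM compound for 30 min, heated for 3 min across 48°C-58°C, pooled and brought to 0.5% NP-40 at 4°C.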

[2] = compound: CCCS(=O)(=O)Nc1ccc(F)c(C(=O)c2c[nH]c3ncc(Cl)cc23)c1F
Outline: as §1

[3] = compound: CCN(CCCOc1ccc2c(Nc3cc(CC(=O)Nc4cccc(F)c4)[nH]n3)ncnc2c1)CCOP(=O)(O)O [barasertib]
Outline: as §1

[4] = compound: CC[C@@H]1C(=O)N(C)c2cnc(Nc3ccc(C(=O)NC4CCN(C)CC4)cc3OC)nc2N1C1CCCC1
Outline: as §1

[5] = compound: CC[C@@H]1C(=O)N(C)c2cnc(Nc3ccc(C(=O)N[C@H]4CC[C@H](N5CCN(CC6CC6)CC5)CC4)cc3OC)nc2N1C(C)C [volasertib]
Outline: as §1

[6] = compound: CCn1c(C(=O)N(C2CC2)C2CC2)cc2c3c(ncn3C)c(Nc3cc(C)n(C)n3)nc21
Outline: as §1

[7] = compound: CCn1cc(-c2ccnc3[nH]c(-c4cccc(CN(C)C)c4)cc23)c(-c2ccc(NC(=O)N(C)C)cc2)n1
Outline: as §1

[8] = compound: CN1CCC(CNc2ccc3ncc(-c4cccc(OC(F)(F)F)c4)n3n2)CC1
Outline: as §1

[9] = compound: CN1CCN(CCOc2cc(OC3CCOCC3)c3c(Nc4c(Cl)ccc5c4OCO5)ncnc3c2)CC1 [saracatinib]
Outline: as §1

[10] = compound: CN1CCN(c2nc(C3=C(c4c[nH]c5ccccc45)C(=O)NC3=O)c3ccccc3n2)CC1 [sotrastaurin]
Outline: as §1

Row | Target | log2 fold change [1] | log2 fold change [2] | log2 fold change [3] | log2 fold change [4] | log2 fold change [5] | log2 fold change [6] | log2 fold change [7] | log2 fold change [8] | log2 fold change [9] | log2 fold change [10]
1 | AKAP1 (UniProt Q92667) | inactive: 0.108 | inactive: 0 | inactive: 0.017 | inactive: -0.091 | inactive: -0.048 | inactive: 0.035 | inactive: -0.024 | inactive: -0.042 | inactive: 0.02 | inactive: -0.03
2 | AGPAT5 (UniProt Q9NUQ2) | inactive: 0.029 | inactive: 0.059 | inactive: 0.006 | inactive: -0.056 | inactive: -0.031 | inactive: -0.015 | inactive: -0.001 | inactive: -0.126 | inactive: 0.05 | inactive: 0.021
3 | AKR1C3 (UniProt P42330) | inactive: 0.01 | inactive: 0.023 | inactive: -0.033 | inactive: 0.091 | inactive: -0.027 | inactive: -0.05 | inactive: -0.034 | inactive: 0.059 | inactive: 0.187 | inactive: 0.044
4 | AKR1C2 (UniProt P52895) | inactive: 0.001 | inactive: 0.018 | inactive: -0.008 | inactive: 0.008 | inactive: -0.018 | inactive: -0.043 | active: -0.369 | inactive: 0.148 | inactive: 0.062 | inactive: 0.006
5 | ADAMTS5 (UniProt Q9UNA0) | inactive: 0.063 | inactive: 0.047 | inactive: 0.038 | inactive: 0.066 | inactive: 0.038 | inactive: -0.15 | active: -0.939 | inactive: 0.292 | inactive: 0.083 | inactive: -0.045
6 | AGAP3 isoform 4 (UniProt Q96P47) | inactive: -0.063 | inactive: 0.042 | inactive: 0.006 | inactive: -0.02 | inactive: -0.026 | inactive: 0.01 | inactive: 0.036 | inactive: -0.035 | inactive: 0.005 | inactive: 0.072
7 | ADPRH (UniProt P54922) | inactive: 0.198 | inactive: -0.033 | inactive: 0.041 | inactive: 0.062 | inactive: -0.023 | inactive: 0.05 | inactive: 0.057 | inactive: -0.013 | inactive: 0.022 | inactive: -0.062
8 | ACVR2B (UniProt Q13705) | inactive: 0.092 | – | – | – | – | – | – | – | – | –
9 | ACOX1 isoform 2 (UniProt Q15067) | inactive: 0.017 | inactive: 0.003 | inactive: -0.029 | inactive: 0.015 | inactive: 0.053 | inactive: -0.026 | inactive: -0.038 | inactive: 0.1 | inactive: -0.014 | inactive: 0.004
10 | ACTB, A0A2R8Y793 | inactive: 0.024 | inactive: 0.032 | inactive: 0.012 | inactive: -0.009 | inactive: -0.084 | inactive: -0.022 | inactive: -0.045 | inactive: 0.012 | inactive: 0.014 | inactive: 0.014
11 | ADD2 (UniProt P35612) | inactive: 0.03 | inactive: -0.004 | inactive: -0.011 | inactive: 0.05 | inactive: 0.028 | inactive: 0.022 | inactive: -0.009 | inactive: 0.091 | inactive: -0.022 | inactive: 0.009
12 | AFF1 isoform 2 (UniProt P51825) | inactive: -0.059 | inactive: 0.007 | inactive: 0.033 | inactive: 0.068 | inactive: -0.043 | inactive: -0.023 | inactive: -0.307 | inactive: 0.125 | inactive: -0.015 | inactive: 0.029
13 | ADD3 (UniProt Q9UEY8) | inactive: -0.008 | inactive: 0.027 | inactive: -0.013 | inactive: 0.046 | inactive: 0.022 | inactive: -0.044 | inactive: -0.045 | inactive: 0.04 | inactive: 0.012 | inactive: 0.012
14 | AGK (UniProt Q53H12) | inactive: 0.021 | inactive: 0.01 | inactive: -0.018 | inactive: -0.014 | inactive: 0.019 | inactive: -0.002 | inactive: 0.091 | inactive: -0.133 | inactive: -0.006 | inactive: -0.029
15 | ADD1 isoform 4 (UniProt P35611) | inactive: 0.061 | inactive: -0.003 | inactive: -0.089 | inactive: 0.164 | inactive: 0.061 | inactive: -0.345 | inactive: -0.61 | inactive: 0.397 | inactive: 0.083 | –
16 | ADAR isoform 4 (UniProt P55265) | inactive: 0.077 | inactive: 0.051 | inactive: 0.061 | inactive: 0.011 | inactive: 0.003 | inactive: 0.025 | inactive: -0.001 | inactive: -0.049 | inactive: 0.04 | inactive: 0.032
17 | AKAP8 (UniProt O43823) | inactive: 0.006 | inactive: 0.044 | inactive: 0.056 | inactive: -0.009 | inactive: -0.03 | inactive: -0.013 | inactive: -0.056 | inactive: 0.044 | inactive: 0.075 | inactive: 0.008
18 | ACSL3 (UniProt O95573) | inactive: 0.005 | inactive: -0.004 | inactive: 0.051 | inactive: 0.072 | inactive: 0.003 | inactive: -0.042 | inactive: -0.055 | inactive: 0.048 | inactive: 0.038 | inactive: 0.036
19 | AK1 (UniProt P00568) | inactive: 0.01 | inactive: -0.036 | inactive: -0.012 | inactive: -0.027 | inactive: 0.021 | inactive: 0.017 | active: 0.332 | inactive: -0.135 | inactive: -0.012 | inactive: -0.024
20 | AGO2 (UniProt Q9UKV8) | inactive: -0.001 | inactive: 0.017 | inactive: 0.003 | inactive: 0.015 | inactive: 0.026 | inactive: 0.006 | inactive: 0.052 | inactive: -0.021 | inactive: 0.007 | inactive: 0.001
21 | AIDA (UniProt Q96BJ3) | inactive: 0.097 | inactive: 0.018 | inactive: -0.016 | inactive: -0.048 | inactive: 0.011 | inactive: -0.026 | inactive: 0.092 | inactive: 0.014 | inactive: -0.024 | inactive: -0.013
22 | ACTR3B (UniProt Q9P1U1) | inactive: -0.032 | inactive: -0.001 | inactive: -0.033 | inactive: 0.065 | inactive: 0.012 | inactive: -0.042 | inactive: -0.027 | inactive: 0.036 | inactive: 0.013 | inactive: -0.091
23 | AKR1A1 (UniProt P14550) | inactive: 0.012 | inactive: 0.006 | inactive: -0.016 | inactive: -0.005 | inactive: -0.015 | inactive: -0.001 | inactive: 0.156 | inactive: -0.015 | inactive: -0.031 | inactive: -0.015
24 | AIMP2 (UniProt Q13155) | inactive: -0.026 | inactive: 0.022 | inactive: 0.031 | inactive: -0.131 | inactive: -0.063 | inactive: -0.019 | inactive: -0.008 | inactive: -0.079 | inactive: 0.018 | inactive: 0.015
25 | ACP1 (UniProt P24666) | inactive: -0.047 | inactive: -0.051 | inactive: -0.045 | inactive: -0.042 | inactive: -0.077 | inactive: 0.016 | inactive: -0.044 | inactive: 0.061 | inactive: -0.038 | inactive: 0.084
26 | ACTN4 (UniProt O43707) | inactive: 0.006 | inactive: -0.011 | inactive: -0.037 | inactive: 0.04 | inactive: 0.017 | inactive: -0.032 | inactive: 0.003 | inactive: 0.022 | inactive: 0.001 | inactive: -0.015
27 | ACOT9 isoform 4 (UniProt Q9Y305) | inactive: 0.01 | inactive: -0.005 | inactive: 0.015 | inactive: -0.066 | inactive: -0.1 | inactive: 0.007 | inactive: -0.068 | inactive: -0.04 | inactive: 0.113 | inactive: 0.02
28 | ACSL4 (UniProt O60488) | inactive: 0.061 | inactive: -0.007 | inactive: -0.006 | inactive: -0.029 | inactive: -0.001 | inactive: 0.036 | inactive: 0.008 | inactive: -0.02 | inactive: 0.047 | inactive: 0.043
29 | AGPAT3 isoform 3 (UniProt Q9NRZ7) | inactive: 0.058 | inactive: 0.019 | inactive: 0.032 | inactive: -0.139 | inactive: -0.035 | inactive: 0.016 | inactive: -0.089 | inactive: -0.039 | inactive: -0.004 | inactive: 0.037
30 | ADO (UniProt Q96SZ5) | inactive: 0.01 | inactive: 0.029 | inactive: 0.014 | inactive: -0.026 | inactive: 0.008 | inactive: -0.004 | inactive: -0.027 | inactive: 0.06 | inactive: 0 | inactive: -0.008

Shown as tab-separated lines: entries from further up.
Row	Target	log2 fold change [1]	log2 fold change [2]	log2 fold change [3]	log2 fold change [4]	log2 fold change [5]	log2 fold change [6]	log2 fold change [7]	log2 fold change [8]	log2 fold change [9]	log2 fold change [10]
13	ADD3 (UniProt Q9UEY8)	inactive: -0.008	inactive: 0.027	inactive: -0.013	inactive: 0.046	inactive: 0.022	inactive: -0.044	inactive: -0.045	inactive: 0.04	inactive: 0.012	inactive: 0.012
14	AGK (UniProt Q53H12)	inactive: 0.021	inactive: 0.01	inactive: -0.018	inactive: -0.014	inactive: 0.019	inactive: -0.002	inactive: 0.091	inactive: -0.133	inactive: -0.006	inactive: -0.029
